Source: PubChem BioAssay (Tox21)
Inconclusive results, whose numbers are uncertain, are shown with a selection of clear calls. Potencies beside an inconclusive call are fits to weak or partial responses and may not hold up. Some structures have more than one record in an assay (separate samples or runs), and their calls can disagree. Active and inactive are the calls of the source. Calls come from the whole dose curve.

What follows are molecules tested against Beta-2 adrenergic receptor (Homo sapiens) (UniProt P07550) (assay: Adrenergic beta2 receptor (ADRB2) small molecule antagonists, cell-based qHTS assay (AID 1963592; note: nearly all actives have a fitted effect of over 50% in size)). Conditions: CHO-ADRB2 cells, isoproterenol-stimulated cAMP HTRF ratio, 0.5 h; activity change, negative = inhibition: at 92.4 µM (top of the series) unless noted.
From the text: U.S. Tox21 Program National Center for Advancing Translational Sciences [NCATS] Division of Preclinical Innovation [DPI] U.S. Environmental Protection Agency [EPA] National Institutes of Environmental Health Sciences [NIEHS] National Toxicology Program [NTP] U.S. Food and Drug Administration [FDA] Tox21 Assay Overview: Beta adrenergic receptors (Beta-ARs) belong to the G-protein coupled receptor (GPCR) superfamily, includes three subtypes - beta1, beta2, and beta3. Beta1-AR is the predominant receptor subtype expressed in the heart, and beta2-AR is expressed in the kidney, lung, blood vessel and in the heart, and beta3 is found in the adipocytes. Beta1 and 2 ARs couple to Gs protein and elevate cyclic adenosine mono phosphate (cAMP), which activates protein kinase A and leads to the downstream signaling responsible for the physiological actions. Beta-AR agonists or antagonists are the most prescribed therapeutic agents for heart failure and asthma, and these were one of the first target receptors for the rational drug design. Tox21 10K compound library was screened using the cAMP-Gs dynamic assay (Cisbio Bioassays, Shelton, CT) to identify agonists/antagonists of the Gs-coupled human adrenergic, beta2 receptor (ADRB2) in the CHO-ADRB2 cell line (Codex BioSolutions, Inc. Gaithersburg, MD), which stably over-expresses ADRB2. The principle of cAMP-Gs dynamic assay is based on HTRF technology, which facilitates the fluorescence resonance energy transfer (FRET) between donor Europium cryptate and acceptor d2-labeled cAMP. The cAMP generated within cells competes with the red acceptor, d2-labled cAMP, for binding to the monoclonal anti-cAMP-cryptate (Europium donor). An increase in intracellular cAMP leads to the disruption of FRET signal, and the signal is inversely proportional to the cAMP concentration. Propranolol HCl (Sigma-Aldrich, St. Louis, MO) was used as a positive control in the screening.
Tox21 Assay Protocol Summary: CHO-ADRB2 cells were dispensed at 1,000/well in 4uL assay medium into white/solid 1536-well plates (Greiner Bio-One North America Inc., Monroe, NC) using a Multidrop Combi dispenser (ThermoFisher Scientific, Waltham, MA). The assay plates were incubated at 37C and 5% CO2 for an overnight (18-20hr). Then positive control and test compounds dissolved in DMSO were transferred to the assay plates at 23nL using a Pintool station (Wako, San Diego, CA). Following the compound and positive control transfer, 1uL agonist-stimulation mix containing 1nM Isoproterenol HCl, 100uM IBMX and 25uM Ro-20-1724 was added to each well of the assay plates using BioRAPTR Flying Reagent Dispenser (FRD, Beckman Coulter, Brea, CA). The assay plates were incubated at room temperature for 0.5hr. Then 2.5ul each d2-labled cAMP and anti-cAMP-cryptate solutions were added separately to each well of the assay plates using an FRD and the assay plates were incubated at room temperature for 1hr. The fluorescence signal was measured at two different wavelengths (665nm and 615nm) using an Envision plate reader (Perkin Elmer, Shelton, CT). Data were expressed as the ratio of 665 nm/615 nm.
% is set by controls: 0 for no effect and ±100 for the full control effect; potency is the fitted concentration of half-maximal effect.

Row | SMILES | activity change, negative = inhibition | Potency
1 | C[C@H](N)[C@H](O)c1ccc(O)c(O)c1 | inconclusive: 13.6% [at 42.5 µM] | 
2 | Clc1cccc(SC2CCNCC2)n1 |  | active: 15 µM
3 | N#CC(CCc1ccc(Cl)cc1)(Cn1cncn1)c1ccccc1 (stereo not given) | inconclusive: -30.7% | 
4 | O=C1c2ccccc2C(=O)c2ccccc21 | inconclusive: -0.103% [at 19 µM] | 
5 | CCOP(=O)(N=C1SCCS1)OCC | inactive: 10.7% | 
6 | Nc1ccc(Cc2ccc(N)cc2)cc1 |  | inactive
7 | c1cncc([C@@H]2CCCCN2)c1 | inactive: -3.19% | 
8 | COc1ccccc1N1CCNCC1 |  | active: 13.3 µM
9 | Nc1ccc(N=Nc2ccccc2)cc1 |  | inconclusive: 58.8 µM [inhibitor]
10 | C[C@]12CC[C@H]3[C@@H](CCC4=CC(=O)CC[C@@H]43)[C@@H]1CC[C@@H]2OC(=O)CCc1ccco1 |  | inconclusive: 6.68 µM [activator, partial curve]
11 | COc1cc(CC(C)N)cc2c1OCO2 (stereo not given) |  | active: 32 µM
12 | CC(C)Oc1cccc(NC(=O)c2ccccc2C(F)(F)F)c1 |  | inconclusive: 1.37 µM [falling, single point]
13 | Cc1cccc(N)c1N |  | inactive
14 | C[C@H]1CNCCc2ccc(Cl)cc21 |  | active: 23.7 µM
15 | CC(C)CC(C)(c1ccc(O)cc1)c1ccc(O)cc1 |  | inconclusive: 68.7 µM [inhibitor, single point]
16 | Nc1cccc2ccccc12 |  | inactive
17 | CCCCCCCCn1sccc1=O |  | inconclusive: 68.7 µM [inhibitor, single point]
18 | Nc1ncc([N+](=O)[O-])s1 |  | inactive
19 | SCc1ccco1 | inconclusive: 4.4% | 

Taken from the entries so far for reference:
Row | SMILES | activity change, negative = inhibition | Potency
16 | Nc1cccc2ccccc12 |  | inactive
17 | CCCCCCCCn1sccc1=O |  | inconclusive: 68.7 µM [inhibitor, single point]

The list continues:

Row | SMILES | activity change, negative = inhibition | Potency
20 | CC(=O)[O][Sn]([c]1ccccc1)([c]1ccccc1)[c]1ccccc1 |  | active: 61.1 µM
21 | CC(C)(c1ccc(O)c(-c2ccccc2)c1)c1ccc(O)c(-c2ccccc2)c1 |  | inconclusive: 27.3 µM [inhibitor]
22 | O=[N+]([O-])c1cc([As](=O)(O)O)ccc1O |  | inactive
23 | CC1(c2ccc(Oc3ccccc3)cc2)OC(=O)N(Nc2ccccc2)C1=O (stereo not given) | inconclusive: -10.8% | 
24 | Clc1cccc(N2CCNCC2)c1 |  | inconclusive: 23.7 µM [inhibitor, partial curve]
25 | IC(I)=C(I)I |  | inconclusive: 30.6 µM [inhibitor, partial curve, poor fit]
26 | CCSC(C)CC1CC(=O)C(/C(CC)=N/OC/C=C/Cl)=C(O)C1 (stereo not given) |  | inconclusive: 0.0008 µM
27 | CCCN(CCC)c1c([N+](=O)[O-])cc(S(N)(=O)=O)cc1[N+](=O)[O-] |  | inconclusive: 13 µM [inhibitor]
28 | O=[N+]([O-])c1ccc(Cl)c([N+](=O)[O-])c1 | inconclusive: 17.8% | inconclusive: 34.9 µM [activator, partial curve]
29 | O=c1ssc(Cl)c1Cl | inactive: 4.14% | 
30 | CCCCCCCCCC(CC)c1ccc(S(=O)(=O)O)cc1 (stereo not given) | inconclusive: -25.8% | inconclusive: 54.5 µM [inhibitor]
31 | O=c1oc2ccccc2c(O)c1C1CCCc2ccccc21 (stereo not given) | inconclusive: -30.8% | 
32 | Oc1ccc2[nH]cc(CCCCN3CC=C(c4ccccc4)CC3)c2c1 |  | active: 26.6 µM
33 | CNC(C)Cc1ccc2c(c1)OCO2 (stereo not given) |  | inconclusive: 84.3 µM [inhibitor, single point]
34 | CNC(=O)CSP(=O)(OC)OC | inactive: -2.14% | 
35 | Nc1ccccc1C(=O)Oc1ccc2ccccc2c1 | inactive: -2.32% | 
36 | CCCCCCCCCCCC[N+](C)(C)CCOc1ccccc1 |  | inconclusive: 61.1 µM [inhibitor]
37 | CCOC(=O)C(O)(c1ccc(Cl)cc1)c1ccc(Cl)cc1 |  | active: 69.3 µM
38 | O=C1C2(Cl)C3(Cl)C4(Cl)C(Cl)(Cl)C5(Cl)C3(Cl)C1(Cl)C5(Cl)C24Cl (stereo not given) |  | inconclusive: 33.8 µM [inhibitor, partial curve]
